The chains behind the UniProt entries cited, without tags or fusion partners.
UniProt Q91YE6: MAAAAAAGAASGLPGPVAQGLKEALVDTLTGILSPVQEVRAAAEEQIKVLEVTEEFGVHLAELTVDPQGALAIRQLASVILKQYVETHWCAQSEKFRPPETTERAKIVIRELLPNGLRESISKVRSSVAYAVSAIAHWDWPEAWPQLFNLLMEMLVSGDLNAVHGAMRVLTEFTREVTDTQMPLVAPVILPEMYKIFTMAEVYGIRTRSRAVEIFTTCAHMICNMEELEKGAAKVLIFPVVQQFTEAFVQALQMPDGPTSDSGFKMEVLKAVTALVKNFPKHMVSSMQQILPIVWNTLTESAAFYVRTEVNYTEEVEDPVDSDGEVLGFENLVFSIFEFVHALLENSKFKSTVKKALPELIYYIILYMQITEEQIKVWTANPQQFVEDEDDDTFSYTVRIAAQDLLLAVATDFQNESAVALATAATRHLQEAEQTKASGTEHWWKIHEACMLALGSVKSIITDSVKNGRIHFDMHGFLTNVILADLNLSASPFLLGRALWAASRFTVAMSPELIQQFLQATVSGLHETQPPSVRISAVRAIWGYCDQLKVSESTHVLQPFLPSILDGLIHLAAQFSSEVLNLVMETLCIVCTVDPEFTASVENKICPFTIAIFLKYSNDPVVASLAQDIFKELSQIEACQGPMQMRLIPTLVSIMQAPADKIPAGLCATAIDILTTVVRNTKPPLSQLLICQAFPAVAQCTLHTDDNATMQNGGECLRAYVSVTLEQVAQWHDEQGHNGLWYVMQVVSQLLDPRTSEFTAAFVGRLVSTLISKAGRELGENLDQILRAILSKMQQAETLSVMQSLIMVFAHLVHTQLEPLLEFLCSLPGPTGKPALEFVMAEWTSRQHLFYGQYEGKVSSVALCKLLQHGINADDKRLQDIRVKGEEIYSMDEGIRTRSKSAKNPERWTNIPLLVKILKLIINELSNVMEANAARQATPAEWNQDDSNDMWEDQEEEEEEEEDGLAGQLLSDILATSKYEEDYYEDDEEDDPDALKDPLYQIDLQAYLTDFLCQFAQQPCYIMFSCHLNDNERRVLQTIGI
UniProt Q7TSJ2: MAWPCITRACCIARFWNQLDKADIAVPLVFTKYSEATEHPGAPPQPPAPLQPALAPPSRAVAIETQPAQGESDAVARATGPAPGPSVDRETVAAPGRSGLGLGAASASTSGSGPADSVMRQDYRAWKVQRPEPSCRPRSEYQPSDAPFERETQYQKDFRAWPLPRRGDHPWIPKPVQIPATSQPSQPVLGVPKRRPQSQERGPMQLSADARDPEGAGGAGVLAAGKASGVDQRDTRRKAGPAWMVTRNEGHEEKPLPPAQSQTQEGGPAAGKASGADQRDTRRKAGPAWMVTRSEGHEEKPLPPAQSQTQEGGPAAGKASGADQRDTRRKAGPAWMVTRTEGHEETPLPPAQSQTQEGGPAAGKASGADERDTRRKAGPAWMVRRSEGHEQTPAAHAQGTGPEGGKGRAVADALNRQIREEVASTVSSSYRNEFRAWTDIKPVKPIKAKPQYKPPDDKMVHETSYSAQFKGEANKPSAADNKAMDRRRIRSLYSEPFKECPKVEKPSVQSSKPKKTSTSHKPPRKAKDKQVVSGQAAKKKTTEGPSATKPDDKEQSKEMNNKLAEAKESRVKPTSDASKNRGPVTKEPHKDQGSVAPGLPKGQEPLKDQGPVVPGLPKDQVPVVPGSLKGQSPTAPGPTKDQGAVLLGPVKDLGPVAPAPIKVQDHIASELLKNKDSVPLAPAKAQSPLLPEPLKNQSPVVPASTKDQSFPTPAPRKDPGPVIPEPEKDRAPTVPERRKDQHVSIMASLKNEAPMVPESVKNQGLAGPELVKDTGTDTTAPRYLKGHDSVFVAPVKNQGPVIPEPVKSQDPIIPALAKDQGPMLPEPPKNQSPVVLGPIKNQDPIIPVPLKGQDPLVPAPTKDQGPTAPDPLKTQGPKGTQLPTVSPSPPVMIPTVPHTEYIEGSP
UniProt G5E829: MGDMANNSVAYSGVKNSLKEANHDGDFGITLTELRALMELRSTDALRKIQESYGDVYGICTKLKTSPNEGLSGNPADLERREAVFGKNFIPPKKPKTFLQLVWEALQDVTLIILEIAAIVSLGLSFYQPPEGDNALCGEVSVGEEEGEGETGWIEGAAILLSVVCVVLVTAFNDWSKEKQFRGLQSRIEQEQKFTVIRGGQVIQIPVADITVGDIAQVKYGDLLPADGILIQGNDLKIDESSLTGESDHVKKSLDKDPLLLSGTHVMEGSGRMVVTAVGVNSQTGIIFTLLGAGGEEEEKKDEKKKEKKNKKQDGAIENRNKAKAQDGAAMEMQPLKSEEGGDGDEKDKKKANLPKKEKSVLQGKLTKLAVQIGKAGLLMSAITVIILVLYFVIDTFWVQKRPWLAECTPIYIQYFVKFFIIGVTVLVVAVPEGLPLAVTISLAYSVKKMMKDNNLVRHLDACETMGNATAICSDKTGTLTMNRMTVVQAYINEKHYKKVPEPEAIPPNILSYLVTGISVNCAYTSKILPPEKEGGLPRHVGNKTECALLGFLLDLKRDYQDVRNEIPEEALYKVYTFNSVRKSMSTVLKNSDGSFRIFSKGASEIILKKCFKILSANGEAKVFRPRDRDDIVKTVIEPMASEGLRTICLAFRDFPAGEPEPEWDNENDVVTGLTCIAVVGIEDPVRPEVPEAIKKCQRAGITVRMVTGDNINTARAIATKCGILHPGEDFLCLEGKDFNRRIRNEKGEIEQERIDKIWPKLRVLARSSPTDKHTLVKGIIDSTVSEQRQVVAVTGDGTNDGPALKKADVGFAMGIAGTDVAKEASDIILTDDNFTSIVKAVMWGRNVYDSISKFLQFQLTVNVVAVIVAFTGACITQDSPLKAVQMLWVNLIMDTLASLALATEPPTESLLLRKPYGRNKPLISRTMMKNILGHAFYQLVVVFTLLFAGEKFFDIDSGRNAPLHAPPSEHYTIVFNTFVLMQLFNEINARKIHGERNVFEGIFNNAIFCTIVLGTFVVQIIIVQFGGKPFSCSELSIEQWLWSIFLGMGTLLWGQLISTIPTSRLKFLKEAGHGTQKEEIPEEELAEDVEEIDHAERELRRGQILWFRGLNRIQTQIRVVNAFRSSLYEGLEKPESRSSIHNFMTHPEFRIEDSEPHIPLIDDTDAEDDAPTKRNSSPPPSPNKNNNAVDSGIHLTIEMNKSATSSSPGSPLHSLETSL
UniProt Q6P5F9: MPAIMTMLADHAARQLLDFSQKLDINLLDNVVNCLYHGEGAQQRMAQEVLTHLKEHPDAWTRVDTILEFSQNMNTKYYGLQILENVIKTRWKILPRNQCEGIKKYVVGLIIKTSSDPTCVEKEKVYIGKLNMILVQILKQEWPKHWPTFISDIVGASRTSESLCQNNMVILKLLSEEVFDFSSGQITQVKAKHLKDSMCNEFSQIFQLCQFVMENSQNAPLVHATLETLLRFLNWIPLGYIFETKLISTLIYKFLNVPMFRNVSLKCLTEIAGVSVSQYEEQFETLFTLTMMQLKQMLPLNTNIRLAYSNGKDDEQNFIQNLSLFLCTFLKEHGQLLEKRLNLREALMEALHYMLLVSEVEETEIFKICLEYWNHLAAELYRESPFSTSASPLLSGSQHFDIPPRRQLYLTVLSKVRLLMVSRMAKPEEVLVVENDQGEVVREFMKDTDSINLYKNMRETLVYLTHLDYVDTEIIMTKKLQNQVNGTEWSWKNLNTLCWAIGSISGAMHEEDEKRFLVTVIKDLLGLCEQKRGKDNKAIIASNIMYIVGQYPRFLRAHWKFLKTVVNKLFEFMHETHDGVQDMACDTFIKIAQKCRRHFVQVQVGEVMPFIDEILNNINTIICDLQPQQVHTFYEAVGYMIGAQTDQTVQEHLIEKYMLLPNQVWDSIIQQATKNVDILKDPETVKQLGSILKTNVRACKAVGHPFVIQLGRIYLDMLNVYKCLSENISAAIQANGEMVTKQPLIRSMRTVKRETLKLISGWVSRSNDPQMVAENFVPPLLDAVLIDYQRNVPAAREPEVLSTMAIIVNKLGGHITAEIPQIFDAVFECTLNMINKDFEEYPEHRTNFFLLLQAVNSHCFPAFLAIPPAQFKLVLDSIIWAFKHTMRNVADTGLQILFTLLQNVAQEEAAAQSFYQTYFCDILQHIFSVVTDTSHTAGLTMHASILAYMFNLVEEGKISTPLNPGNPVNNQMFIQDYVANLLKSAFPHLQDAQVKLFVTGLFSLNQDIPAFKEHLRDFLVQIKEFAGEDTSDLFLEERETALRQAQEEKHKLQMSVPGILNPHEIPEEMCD
UniProt O55143: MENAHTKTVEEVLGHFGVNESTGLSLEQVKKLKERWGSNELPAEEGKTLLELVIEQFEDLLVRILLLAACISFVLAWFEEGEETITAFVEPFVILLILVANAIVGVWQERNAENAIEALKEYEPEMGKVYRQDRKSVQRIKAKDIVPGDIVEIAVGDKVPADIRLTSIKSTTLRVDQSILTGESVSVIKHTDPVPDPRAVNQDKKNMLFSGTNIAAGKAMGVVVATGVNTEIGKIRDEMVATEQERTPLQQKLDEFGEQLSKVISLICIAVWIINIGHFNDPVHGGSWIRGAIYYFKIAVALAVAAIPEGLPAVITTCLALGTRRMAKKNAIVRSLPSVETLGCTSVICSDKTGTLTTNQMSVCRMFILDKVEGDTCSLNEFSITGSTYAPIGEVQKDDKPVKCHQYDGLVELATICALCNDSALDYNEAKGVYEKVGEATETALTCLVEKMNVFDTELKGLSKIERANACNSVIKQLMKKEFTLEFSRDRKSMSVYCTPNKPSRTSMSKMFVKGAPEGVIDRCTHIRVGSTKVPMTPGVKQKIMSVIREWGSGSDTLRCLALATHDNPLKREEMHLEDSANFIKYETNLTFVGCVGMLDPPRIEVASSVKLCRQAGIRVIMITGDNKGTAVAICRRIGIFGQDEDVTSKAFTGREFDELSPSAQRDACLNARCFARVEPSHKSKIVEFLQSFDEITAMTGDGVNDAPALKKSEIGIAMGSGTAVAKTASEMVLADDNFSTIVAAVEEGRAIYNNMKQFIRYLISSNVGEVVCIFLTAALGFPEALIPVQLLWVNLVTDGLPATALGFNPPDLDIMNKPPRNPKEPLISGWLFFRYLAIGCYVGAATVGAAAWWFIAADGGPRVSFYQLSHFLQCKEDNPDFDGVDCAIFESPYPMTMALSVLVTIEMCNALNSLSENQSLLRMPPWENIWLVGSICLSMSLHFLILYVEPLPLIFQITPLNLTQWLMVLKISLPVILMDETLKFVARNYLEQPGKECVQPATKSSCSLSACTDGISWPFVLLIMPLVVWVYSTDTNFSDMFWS
UniProt P17426: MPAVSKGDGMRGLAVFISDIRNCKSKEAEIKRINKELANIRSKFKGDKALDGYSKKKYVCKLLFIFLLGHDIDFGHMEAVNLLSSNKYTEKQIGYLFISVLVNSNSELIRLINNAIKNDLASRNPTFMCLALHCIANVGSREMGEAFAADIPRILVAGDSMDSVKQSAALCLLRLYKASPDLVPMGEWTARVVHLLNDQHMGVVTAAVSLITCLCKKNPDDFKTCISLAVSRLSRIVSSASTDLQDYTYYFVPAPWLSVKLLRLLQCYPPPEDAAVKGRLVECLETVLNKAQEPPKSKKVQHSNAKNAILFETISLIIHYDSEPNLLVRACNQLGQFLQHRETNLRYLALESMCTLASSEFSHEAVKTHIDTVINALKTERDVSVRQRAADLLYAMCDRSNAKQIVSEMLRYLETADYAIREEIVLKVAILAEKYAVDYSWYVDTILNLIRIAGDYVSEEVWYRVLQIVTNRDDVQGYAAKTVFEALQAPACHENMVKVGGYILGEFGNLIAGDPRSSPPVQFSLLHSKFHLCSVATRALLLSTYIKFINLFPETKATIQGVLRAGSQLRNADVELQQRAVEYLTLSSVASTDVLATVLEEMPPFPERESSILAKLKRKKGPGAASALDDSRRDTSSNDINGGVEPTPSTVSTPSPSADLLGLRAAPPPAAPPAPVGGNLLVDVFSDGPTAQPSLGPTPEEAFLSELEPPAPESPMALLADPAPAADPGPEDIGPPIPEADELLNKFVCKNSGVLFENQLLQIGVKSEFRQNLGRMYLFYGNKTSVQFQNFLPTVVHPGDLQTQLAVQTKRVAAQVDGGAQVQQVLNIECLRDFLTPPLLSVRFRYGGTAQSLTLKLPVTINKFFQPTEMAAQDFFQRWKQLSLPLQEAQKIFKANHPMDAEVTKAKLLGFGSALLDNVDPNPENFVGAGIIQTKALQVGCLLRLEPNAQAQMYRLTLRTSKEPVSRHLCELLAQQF

In PMC7969623:

B1: Cullin-associated NEDD8-dissociated protein 1 (protein, UniProt Q6ZQ38 1-1230)
chain: MASASYHISNLLEKMTSSDKDFRFMATNDLMTELQKDSIKLDDDSERKVVKMILRLLEDKNGEVQNLAVKCLGPLVSKVKEYQVETIVDTLCTNMLSDKEQLRDISSIGLKTVIGELPPASSGSALAANVCKKITGRLTSAIAKQEDVSVQLEALDIMADMLSRQGGLLVNFHPSILTCLLPQLTSPRLAVRKRTIIALGHLVMSCGNIVFVDLIEHLLSELSKNDSMSTTRTYIQCIAAISRQAGHRIGEYLEKIIPLVVKFCNVDDDELREYCIQAFESFVRRCPKEVYPHVSTIINICLKYLTYDPNYNYDDEDEDENAMDADGGDDDDQGSDDEYSDDDDMSWKVRRAAAKCLDAVVSTRHEMLPEFYKTVSPALIARFKEREENVKADVFHAYLSLLKQTRPVQSWLCDPDAMEQGDTPLTMLQSQVPNIVKALHKQMKEKSVKTRQCCFNMLTELVNVLPGALTQHIPVLVPGIIFSLNDKSSSSNLKIDALSCLYVILCNHSPQVFHPHVQALVPPVVACVGDPFYKITSEALLVTQQLVKVIRPLDQPSSFDATPYIKDLFTCTIKRLKAADIDQEVKERAISCMGQIICNLGDNLGPDLSNTLQIFLERLKNEITRLTTVKALTLIAGSPLKIDLRPVLGEGVPILASFLRKNQRALKLGTLSALDILIKNYSDSLTAAMIDAVLDELPPLISESDMHVSQMAISFLTTLAKVYPSSLSKISGSILNELIGLVRSPLLQGGALSAMLDFFQALVVTGTNNLGYMDLLRMLTGPVYSQSTALTHKQSYYSIAKCVAALTRACPKEGPAVVGQFIQDVKNSRSTDSIRLLALLSLGEVGHHIDLSGQLELKSVILEAFSSPSEEVKSAASYALGSISVGNLPEYLPFVLQEITSQPKRQYLLLHSLKEIISSASVAGLKPYVENIWALLLKHCECAEEGTRNVVAECLGKLTLIDPETLLPRLKGYLISGSSYARSSVVTAVKFTISDHPQPIDPLLKNCIGDFLKTLEDPDLNVRRVALVTFNSAAHNKPSLIRDLLDSVLPHLYNETKVRKELIREVEMGPFKHTVDDGLDIRKAAFECMYTLLDSCLDRLDIFEFLNHVEDGLKDHYDIKMLTFLMLVRLSTLCPSAVLQRLDRLVEPLRATCTTKVKANSVKQEFEKQDELKRSAMRAVAALLTIPEAEKSPLMSEFQSQISSNPELAAIFESIQKDSSSTNLESMDTS
B2: Exportin-7 (protein, UniProt Q9EPK7 1-1087)
chain: MADHVQSLAQLENLCKQLYETTDTTTRLQAEKALVEFTNSPDCLSKCQLLLERGSSSYSQLLAATCLTKLVSRTNNPLPLEQRIDIRNYVLNYLATRPKLATFVTQALIQLYARITKLGWFDCQKDDYVFRNAITDVTRFLQDSVEYCIIGVTILSQLTNEINQADTTHPLTKHRKIASSFRDSSLFDIFTLSCNLLKQASGKNLNLNDESQHGLLMQLLKLTHNCLNFDFIGTSTDESSDDLCTVQIPTSWRSAFLDSSTLQLFFDLYHSIPPSFSPLVLSCLVQIASVRRSLFNNAERAKFLSHLVDGVKRILENPQSLSDPNNYHEFCRLLARLKSNYQLGELVKVENYPDVIRLIANFTVTSLQHWEFAPNSVHYLLSLWQRLAASVPYVKATEPHMLETYTPEVTKAYITSRLESVHIILRDGLEDPLEDTGLVQQQLDQLSTIGRCEYEKTCALLVQLFDQSAQSYQELLQSASASPMDIAVQEGRLTWLVYIIGAVIGGRVSFASTDEQDAMDGELVCRVLQLMNLTDSRLAQAGNEKLELAMLSFFEQFRKIYIGDQVQKSSKLYRRLSEVLGLNDETMVLSVFIGKVITNLKYWGRCEPITSKTLQLLNDLSIGYSSVRKLVKLSAVQFMLNNHTSEHFSFLGINNQSNLTDMRCRTTFYTALGRLLMVDLGEDEDQYEQFMLPLTAAFEAVAQMFSTNSFNEQEAKRTLVGLVRDLRGIAFAFNAKTSFMMLFEWIYPSYMPILQRAIELWYHDPACTTPVLKLMAELVHNRSQRLQFDVSSPNGILLFRETSKMITMYGNRILTLGEVPKDQVYALKLKGISICFSMLKAALSGSYVNFGVFRLYGDDALENALQTFIKLLLSIPHSDLLDYPKLSQSYYSLLEVLTQDHMNFIASLEPHVIMYILSSISEGLTALDTMVCTGCCSCLDHIVTYLFKQLSRSTKKRTTPLNRESDCFLHIMQQHPAMIQQMLSTVLNIIIFEDCRNQWSMSRPLLGLILLNEKYFSDLRNSIVNSQPPEKQQAMHLCFENLMEGIERNLLTKNRDRFTQNLSAFRREVNDSMKNSTYGVNSNDMMS
B3: Importin-5 (protein, UniProt Q8BKC5 1-1097)
chain: MAAAAAEQQQFYLLLGNLLSPDNVVRKQAEETYENIPGRSKITFLLQAIRNTTAAEEARQMAAVLLRRLLSSAFDEVYPALPSDVQTAIKSELLMIIQMETQSSMRKKICDIAAELARNLIDEDGNNQWPEGLKFLFDSVSSQNMGLREAALHIFWNFPGIFGNQQQHYLDVIKRMLVQCMQDQEHPSIRTLSARATAAFILANEHNVALFKHFADLLPGFLQAVNDSCYQNDDSVLKSLVEIADTVPKYLRPHLEATLQLSLKLCGDTNLNNMQRQLALEVIVTLSETAAAMLRKHTSLIAQTIPQMLAMMVDLEEDEDWANADELEDDDFDSNAVAGESALDRMACGLGGKLVLPMIKEHIMQMLQNPDWKYRHAGLMALSAIGEGCHQQMEGILNEIVNFVLLFLQDPHPRVRYAACNAVGQMATDFAPGFQKKFHEKVIAALLQTMEDQGNQRVQAHAAAALINFTEDCPKSLLIPYLDNLVKHLHSIMVLKLQELIQKGTKLVLEQVVTSIASVADTAEEKFVPYYDLFMPSLKHIVENAVQKELRLLRGKTIECISLIGLAVGKEKFMQDASDVMQLLLKTQTDFNDMEDDDPQISYMISAWARMCKILGKEFQQYLPVVMGPLMKTASIKPEVALLDTQDMENMSDDDGWEFVNLGDQQSFGIKTAGLEEKSTACQMLVCYAKELKEGFVEYTEQVVKLMVPLLKFYFHDGVRVAAAESMPLLLECARVRGPEYLTQMWHFMCDALIKAIGTEPDSDVLSEIMHSFAKCIEVMGDGCLNNEHFEELGGILKAKLEEHFKNQELRQVKRQDEDYDEQVEESLQDEDDNDVYILTKVSDILHSIFSSYKEKVLPWFEQLLPLIVNLICPQRPWPDRQWGLCIFDDIVEHCSPASFKYAEYFISPMLQYVCDNSPEVRQAAAYGLGVMAQFGGDNYRPFCTDALPLLVRVIQAPEAKTKENVNATENCISAVGKIMKFKPDCVNVEEVLPHWLSWLPLHEDKEEAVQTFSYLCDLIESNHPIVLGPNNTNLPKIFSIIAEGEMHEAIKHEDPCAKRLANVVRQVQTSGGLWTECIAQLSPEQQAAIQELLNSA
B4: Splicing factor 3B subunit 1 (protein, UniProt Q99NB9 1-1304)
chain: MAKIAKTHEDIEAQIREIQGKKAALDEAQGVGLDSTGYYDQEIYGGSDSRFAGYVTSIAATELEDDDDDYSSSTSLLGQKKPGYHAPVALLNDIPQSTEQYDPFAEHRPPKIADREDEYKKHRRTMIISPERLDPFADGGKTPDPKMNARTYMDVMREQHLTKEEREIRQQLAEKAKAGELKVVNGAAASQPPSKRKRRWDQTADQTPGATPKKLSSWDQAETPGHTPSLRWDETPGRAKGSETPGATPGSKIWDPTPSHTPAGAATPGRGDTPGHATPGHGGATSSARKNRWDETPKTERDTPGHGSGWAETPRTDRGGDSIGETPTPGASKRKSRWDETPASQMGGSTPVLTPGKTPIGTPAMNMATPTPGHIMSMTPEQLQAWRWEREIDERNRPLSDEELDAMFPEGYKVLPPPAGYVPIRTPARKLTATPTPLGGMTGFHMQTEDRTMKSVNDQPSGNLPFLKPDDIQYFDKLLVDVDESTLSPEEQKERKIMKLLLKIKNGTPPMRKAALRQITDKAREFGAGPLFNQILPLLMSPTLEDQERHLLVKVIDRILYKLDDLVRPYVHKILVVIEPLLIDEDYYARVEGREIISNLAKAAGLATMISTMRPDIDNMDEYVRNTTARAFAVVASALGIPSLLPFLKAVCKSKKSWQARHTGIKIVQQIAILMGCAILPHLRSLVEIIEHGLVDEQQKVRTISALAIAALAEAATPYGIESFDSVLKPLWKGIRQHRGKGLAAFLKAIGYLIPLMDAEYANYYTREVMLILIREFQSPDEEMKKIVLKVVKQCCGTDGVEANYIKTEILPPFFKHFWQHRMALDRRNYRQLVDTTVELANKVGAAEIISRIVDDLKDEAEQYRKMVMETIEKIMGNLGAADIDHKLEEQLIDGILYAFQEQTTEDSVMLNGFGTVVNALGKRVKPYLPQICGTVLWRLNNKSAKVRQQAADLISRTAVVMKTCQEEKLMGHLGVVLYEYLGEEYPEVLGSILGALKAIVNVIGMHKMTPPIKDLLPRLTPILKNRHEKVQENCIDLVGRIADRGAEYVSAREWMRICFELLELLKAHKKAIRRATVNTFGYIAKAIGPHDVLATLLNNLKVQERQNRVCTTVAIAIVAETCSPFTVLPALMNEYRVPELNVQNGVLKSLSFLFEYIGEMGKDYIYAVTPLLEDALMDRDLVHRQTASAVVQHMSLGVYGFGCEDSLNHLLNYVWPNVFETSPHVIQAVMGALEGLRVAIGPCRMLQYCLQGLFHPARKVRDVYWKIYNSIYIGSQDALIAHYPRIYNDDKNTYIRYDLDYIL

What follows are molecules tested against T1, PRRT2-HA (full length PRoline Rich Transmembrane protein 2 with HA tag fused at C terminus) (UniProt E9PUL5) (assay: affinity purification with mass spectrometry; PRRT2-HA or BAP-HA from COS-7 held on anti-HA agarose, washed, incubated overnight at 4 °C with total mouse brain extract in lysis buffer (1% Triton X-100, 150 mM NaCl, 50 mM Tris-HCl pH 7.4, 1 mM EDTA); eluted with HA peptide; bands between 95 and 130 kDa cut from the Coomassie gel, LC-MS/MS; only the target purified).
T1 sequence: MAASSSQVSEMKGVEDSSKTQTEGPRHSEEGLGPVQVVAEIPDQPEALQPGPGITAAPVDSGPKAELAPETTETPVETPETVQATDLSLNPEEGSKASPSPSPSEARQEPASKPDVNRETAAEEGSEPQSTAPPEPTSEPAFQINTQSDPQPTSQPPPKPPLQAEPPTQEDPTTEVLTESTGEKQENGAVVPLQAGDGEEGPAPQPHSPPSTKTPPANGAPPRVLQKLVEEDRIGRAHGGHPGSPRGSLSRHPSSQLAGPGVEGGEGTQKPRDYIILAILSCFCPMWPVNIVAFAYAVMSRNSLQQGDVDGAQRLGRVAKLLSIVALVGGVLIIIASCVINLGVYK

binding, binds:
Importin-7 (from UniProt Q9EPL8 1-1038)
Importin-9 (from UniProt Q91YE6 1-1041)
Microtubule-associated protein 6 (from UniProt Q7TSJ2 1-906)
Plasma membrane calcium-transporting ATPase 1 (from UniProt G5E829 1-1220)
Exportin-1 (from UniProt Q6P5F9 1-1071)
Sarcoplasmic/endoplasmic reticulum calcium ATPase 2 (from UniProt O55143 1-1044)
AP-2 complex subunit alpha-1 (from UniProt P17426 1-977)
B1
B2
B3
B4

No constants are given. Whether binding was seen depends on the method and setting. In cells and extracts the contact can be indirect. These calls come from enrichment with a bait or labelling near it, and not all partners need be listed. Where a sequence is shown, tags or fusion partners need not be part of it.
